Data reported in the supplement of paper PMC10849652.
Some of the results follow.

Sequences of proteins named here, by UniProt entry; tags and fusion partners are left off. A change or cut given only in a name is not applied to a line headed by its entry.
UniProt Q9H0E3: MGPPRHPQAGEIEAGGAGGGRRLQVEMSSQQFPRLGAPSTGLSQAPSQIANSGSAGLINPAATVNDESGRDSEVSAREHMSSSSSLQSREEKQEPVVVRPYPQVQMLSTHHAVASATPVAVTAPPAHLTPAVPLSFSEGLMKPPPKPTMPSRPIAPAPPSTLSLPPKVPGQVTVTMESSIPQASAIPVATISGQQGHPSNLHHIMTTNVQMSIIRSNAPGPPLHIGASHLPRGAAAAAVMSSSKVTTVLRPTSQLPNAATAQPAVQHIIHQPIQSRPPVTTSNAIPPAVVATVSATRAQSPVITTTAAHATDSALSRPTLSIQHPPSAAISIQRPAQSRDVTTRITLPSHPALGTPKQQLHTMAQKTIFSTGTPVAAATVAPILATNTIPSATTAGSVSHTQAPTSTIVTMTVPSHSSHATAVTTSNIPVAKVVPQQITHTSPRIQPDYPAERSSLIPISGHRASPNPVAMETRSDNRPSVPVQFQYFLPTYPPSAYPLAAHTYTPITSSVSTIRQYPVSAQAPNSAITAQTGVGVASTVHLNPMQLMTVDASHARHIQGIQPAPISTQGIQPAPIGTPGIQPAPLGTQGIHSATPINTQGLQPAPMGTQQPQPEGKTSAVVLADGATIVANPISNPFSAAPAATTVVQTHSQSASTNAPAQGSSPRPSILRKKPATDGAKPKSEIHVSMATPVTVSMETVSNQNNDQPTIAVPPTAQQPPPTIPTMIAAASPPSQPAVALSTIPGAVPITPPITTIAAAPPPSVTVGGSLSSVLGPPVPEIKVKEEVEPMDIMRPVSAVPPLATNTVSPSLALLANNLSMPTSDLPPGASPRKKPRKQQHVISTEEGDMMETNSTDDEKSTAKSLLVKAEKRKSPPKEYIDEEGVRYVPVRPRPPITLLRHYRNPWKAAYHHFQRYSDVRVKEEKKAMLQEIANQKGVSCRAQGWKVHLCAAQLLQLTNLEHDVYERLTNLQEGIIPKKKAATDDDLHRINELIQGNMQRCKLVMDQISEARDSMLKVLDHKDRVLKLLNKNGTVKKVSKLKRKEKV
UniProt O00560: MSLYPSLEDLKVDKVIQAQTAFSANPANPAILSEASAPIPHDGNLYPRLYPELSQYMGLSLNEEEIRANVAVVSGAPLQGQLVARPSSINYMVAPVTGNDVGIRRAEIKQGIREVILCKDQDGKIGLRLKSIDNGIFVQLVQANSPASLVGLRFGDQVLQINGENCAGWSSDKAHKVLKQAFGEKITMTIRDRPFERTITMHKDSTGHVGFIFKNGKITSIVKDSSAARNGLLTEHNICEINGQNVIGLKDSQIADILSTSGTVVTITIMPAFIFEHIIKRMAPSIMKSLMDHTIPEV
UniProt O95969: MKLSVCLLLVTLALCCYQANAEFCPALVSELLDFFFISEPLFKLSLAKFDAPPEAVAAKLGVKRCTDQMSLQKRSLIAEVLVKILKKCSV
UniProt P26447: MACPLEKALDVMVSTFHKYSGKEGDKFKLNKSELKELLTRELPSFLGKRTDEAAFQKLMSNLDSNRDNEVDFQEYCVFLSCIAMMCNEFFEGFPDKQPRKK
UniProt O15127: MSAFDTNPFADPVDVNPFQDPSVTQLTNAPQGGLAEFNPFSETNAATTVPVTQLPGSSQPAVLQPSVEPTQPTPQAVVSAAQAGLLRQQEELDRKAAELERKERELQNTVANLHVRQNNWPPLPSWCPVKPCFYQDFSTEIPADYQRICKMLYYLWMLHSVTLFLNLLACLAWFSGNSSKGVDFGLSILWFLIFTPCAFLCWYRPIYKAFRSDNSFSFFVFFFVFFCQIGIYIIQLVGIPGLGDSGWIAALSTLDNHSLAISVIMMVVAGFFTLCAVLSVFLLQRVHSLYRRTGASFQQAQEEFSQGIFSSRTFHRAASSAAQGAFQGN
UniProt O14521: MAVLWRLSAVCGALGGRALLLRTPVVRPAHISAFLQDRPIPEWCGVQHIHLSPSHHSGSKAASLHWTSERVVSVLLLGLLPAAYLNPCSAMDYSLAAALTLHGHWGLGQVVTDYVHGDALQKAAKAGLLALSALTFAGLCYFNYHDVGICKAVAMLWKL
UniProt Q9UIL1: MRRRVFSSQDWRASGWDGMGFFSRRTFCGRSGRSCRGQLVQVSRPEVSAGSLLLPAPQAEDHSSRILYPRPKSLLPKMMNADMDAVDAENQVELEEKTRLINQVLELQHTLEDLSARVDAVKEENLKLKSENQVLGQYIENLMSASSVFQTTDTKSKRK
UniProt Q96EU6: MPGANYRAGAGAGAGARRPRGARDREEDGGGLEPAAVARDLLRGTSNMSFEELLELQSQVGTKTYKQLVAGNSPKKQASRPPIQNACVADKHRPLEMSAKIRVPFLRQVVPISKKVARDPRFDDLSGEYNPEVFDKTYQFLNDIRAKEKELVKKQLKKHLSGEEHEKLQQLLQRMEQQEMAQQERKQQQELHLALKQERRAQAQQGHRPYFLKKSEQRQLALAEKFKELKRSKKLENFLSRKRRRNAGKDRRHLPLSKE
UniProt Q92622: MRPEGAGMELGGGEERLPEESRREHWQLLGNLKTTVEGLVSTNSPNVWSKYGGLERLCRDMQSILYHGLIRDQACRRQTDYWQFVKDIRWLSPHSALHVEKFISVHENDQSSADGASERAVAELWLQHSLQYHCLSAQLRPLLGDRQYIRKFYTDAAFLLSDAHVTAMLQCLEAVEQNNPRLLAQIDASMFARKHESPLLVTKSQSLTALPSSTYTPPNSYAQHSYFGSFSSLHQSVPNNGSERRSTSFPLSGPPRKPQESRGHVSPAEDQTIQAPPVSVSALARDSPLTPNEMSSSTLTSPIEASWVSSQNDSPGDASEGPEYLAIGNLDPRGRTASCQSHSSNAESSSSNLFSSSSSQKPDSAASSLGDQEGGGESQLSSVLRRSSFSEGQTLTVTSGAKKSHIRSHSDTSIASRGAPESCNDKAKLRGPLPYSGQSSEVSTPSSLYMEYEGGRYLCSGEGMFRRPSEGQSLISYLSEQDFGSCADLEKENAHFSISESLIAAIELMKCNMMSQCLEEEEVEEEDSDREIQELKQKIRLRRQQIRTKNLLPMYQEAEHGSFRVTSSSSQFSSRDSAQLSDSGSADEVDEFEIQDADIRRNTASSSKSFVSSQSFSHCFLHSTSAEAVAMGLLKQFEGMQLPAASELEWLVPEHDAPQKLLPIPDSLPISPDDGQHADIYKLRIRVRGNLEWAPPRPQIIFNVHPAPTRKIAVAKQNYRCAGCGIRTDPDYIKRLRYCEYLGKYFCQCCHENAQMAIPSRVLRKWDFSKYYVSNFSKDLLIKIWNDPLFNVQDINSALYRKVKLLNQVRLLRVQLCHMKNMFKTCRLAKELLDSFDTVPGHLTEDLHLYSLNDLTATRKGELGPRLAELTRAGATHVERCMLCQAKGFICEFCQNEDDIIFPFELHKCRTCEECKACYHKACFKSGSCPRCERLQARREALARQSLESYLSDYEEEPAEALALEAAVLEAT
UniProt Q9NQC3: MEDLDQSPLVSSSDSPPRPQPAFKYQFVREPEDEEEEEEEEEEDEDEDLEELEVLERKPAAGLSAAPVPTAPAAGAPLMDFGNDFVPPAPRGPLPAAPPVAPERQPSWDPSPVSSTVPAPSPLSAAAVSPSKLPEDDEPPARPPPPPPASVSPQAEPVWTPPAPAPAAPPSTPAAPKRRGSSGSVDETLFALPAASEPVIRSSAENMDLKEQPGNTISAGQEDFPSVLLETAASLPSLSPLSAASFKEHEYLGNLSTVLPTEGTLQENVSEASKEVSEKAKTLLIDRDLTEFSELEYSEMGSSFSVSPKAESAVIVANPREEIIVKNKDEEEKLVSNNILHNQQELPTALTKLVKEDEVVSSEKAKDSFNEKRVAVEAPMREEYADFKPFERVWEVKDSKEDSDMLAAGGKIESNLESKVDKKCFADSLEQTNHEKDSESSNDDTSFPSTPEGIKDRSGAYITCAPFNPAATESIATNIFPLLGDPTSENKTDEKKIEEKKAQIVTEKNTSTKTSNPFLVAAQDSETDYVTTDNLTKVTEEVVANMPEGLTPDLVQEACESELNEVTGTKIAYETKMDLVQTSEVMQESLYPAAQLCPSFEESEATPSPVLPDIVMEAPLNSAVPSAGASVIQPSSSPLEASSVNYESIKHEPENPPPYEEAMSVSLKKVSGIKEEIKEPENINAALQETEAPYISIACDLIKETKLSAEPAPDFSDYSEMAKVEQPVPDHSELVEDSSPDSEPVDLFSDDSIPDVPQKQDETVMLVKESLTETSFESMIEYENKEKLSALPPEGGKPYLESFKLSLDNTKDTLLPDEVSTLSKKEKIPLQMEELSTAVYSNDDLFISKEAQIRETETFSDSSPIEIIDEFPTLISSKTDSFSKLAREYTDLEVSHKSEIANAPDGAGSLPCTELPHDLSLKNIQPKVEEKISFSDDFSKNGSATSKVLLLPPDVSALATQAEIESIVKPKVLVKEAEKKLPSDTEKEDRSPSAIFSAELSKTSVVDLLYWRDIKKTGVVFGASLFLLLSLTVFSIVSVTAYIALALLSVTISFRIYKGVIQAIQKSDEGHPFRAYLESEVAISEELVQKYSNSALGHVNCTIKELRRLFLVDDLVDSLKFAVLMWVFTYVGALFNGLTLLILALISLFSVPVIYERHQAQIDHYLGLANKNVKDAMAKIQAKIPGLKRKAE
UniProt Q7L3V2: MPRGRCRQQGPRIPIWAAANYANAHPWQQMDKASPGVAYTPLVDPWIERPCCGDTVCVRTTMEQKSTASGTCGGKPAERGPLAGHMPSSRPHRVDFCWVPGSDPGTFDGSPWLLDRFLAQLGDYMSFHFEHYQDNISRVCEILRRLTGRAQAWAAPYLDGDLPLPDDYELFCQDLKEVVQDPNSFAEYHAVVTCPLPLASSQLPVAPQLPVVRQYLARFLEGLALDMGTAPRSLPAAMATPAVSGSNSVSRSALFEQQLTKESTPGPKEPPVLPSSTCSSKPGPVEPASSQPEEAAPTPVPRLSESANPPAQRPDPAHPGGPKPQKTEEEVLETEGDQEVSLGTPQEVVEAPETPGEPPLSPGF
UniProt P48443: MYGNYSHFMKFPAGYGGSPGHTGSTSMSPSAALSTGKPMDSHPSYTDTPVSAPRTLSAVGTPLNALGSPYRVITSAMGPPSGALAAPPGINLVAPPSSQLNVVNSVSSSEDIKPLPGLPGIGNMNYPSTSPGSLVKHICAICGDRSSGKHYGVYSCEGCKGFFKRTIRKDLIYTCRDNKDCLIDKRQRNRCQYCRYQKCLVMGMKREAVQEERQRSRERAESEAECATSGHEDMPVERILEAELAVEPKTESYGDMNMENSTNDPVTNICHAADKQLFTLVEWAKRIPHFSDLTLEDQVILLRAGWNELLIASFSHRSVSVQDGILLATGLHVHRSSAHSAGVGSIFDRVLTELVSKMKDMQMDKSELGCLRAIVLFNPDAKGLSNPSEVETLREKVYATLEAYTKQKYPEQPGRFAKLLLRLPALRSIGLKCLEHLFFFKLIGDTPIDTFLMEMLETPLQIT
UniProt Q8N9R8: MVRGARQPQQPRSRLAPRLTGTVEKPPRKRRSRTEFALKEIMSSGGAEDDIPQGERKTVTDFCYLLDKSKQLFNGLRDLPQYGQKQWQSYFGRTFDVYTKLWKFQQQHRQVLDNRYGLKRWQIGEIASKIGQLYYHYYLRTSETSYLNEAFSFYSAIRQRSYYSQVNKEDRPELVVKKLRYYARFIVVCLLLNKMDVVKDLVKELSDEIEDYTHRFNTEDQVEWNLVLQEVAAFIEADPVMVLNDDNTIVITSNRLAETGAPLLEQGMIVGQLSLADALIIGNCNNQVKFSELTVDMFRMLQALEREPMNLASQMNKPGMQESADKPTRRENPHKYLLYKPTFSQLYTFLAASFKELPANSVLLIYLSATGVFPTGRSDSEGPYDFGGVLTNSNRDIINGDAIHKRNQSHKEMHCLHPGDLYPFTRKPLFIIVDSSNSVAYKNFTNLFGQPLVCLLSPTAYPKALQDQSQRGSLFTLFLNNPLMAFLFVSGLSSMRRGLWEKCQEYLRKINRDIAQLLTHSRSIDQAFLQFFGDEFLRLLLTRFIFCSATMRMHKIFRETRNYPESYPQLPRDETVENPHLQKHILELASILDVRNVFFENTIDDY
UniProt Q96IW7: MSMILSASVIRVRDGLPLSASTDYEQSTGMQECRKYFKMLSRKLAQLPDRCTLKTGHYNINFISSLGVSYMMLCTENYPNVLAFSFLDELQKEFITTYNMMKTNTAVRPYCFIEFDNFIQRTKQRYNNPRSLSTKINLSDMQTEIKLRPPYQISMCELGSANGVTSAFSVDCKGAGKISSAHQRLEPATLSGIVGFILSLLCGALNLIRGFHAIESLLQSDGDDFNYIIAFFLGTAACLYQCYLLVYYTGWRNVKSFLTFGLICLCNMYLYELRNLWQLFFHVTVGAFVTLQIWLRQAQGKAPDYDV
UniProt Q9HCY8: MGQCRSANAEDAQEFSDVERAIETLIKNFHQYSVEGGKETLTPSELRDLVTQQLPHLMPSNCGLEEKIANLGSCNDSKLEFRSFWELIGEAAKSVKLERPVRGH
UniProt A6ZKI3: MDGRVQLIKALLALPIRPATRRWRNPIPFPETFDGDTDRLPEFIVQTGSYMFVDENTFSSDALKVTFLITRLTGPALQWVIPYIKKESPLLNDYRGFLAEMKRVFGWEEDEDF

Compound: Cc1ccc(C(=O)N(CCCN)[C@@H](c2nc3cc(Cl)ccc3c(=O)n2Cc2ccccc2)C(C)C)cc1 [ispinesib]
Test: log2 fold change, soluble protein after heating vs DMSO (PISA); higher = thermal stabilisation; K562 cells, 10 uM, 30 min; active = over 0.2 and 3.5 SD of the protein, either way, in both replicates (recomputed)
Summary of the method: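 K562 cells at 2×10^6 cells/mL were treated for 30 min with 10 μM compound, and aliquots were heated for 3 min over 48°C-58°C before pooling. Extraction used PBS with 0.5% NP-40 at 4°C, and soluble protein was the supernatant after 21,000xg for 90 min, measured by TMTpro 16plex LC-MS/MS with channel sums equalised. Thermal stability values, relative to control samples and from duplicates, are log2 fold changes.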

| Target | log2 fold change |
| --- | --- |
| SAP130 isoform 3 (UniProt Q9H0E3) | inactive: -0.115 |
| SDCBP isoform 2 (UniProt O00560) | inactive: -0.185 |
| SCGB1D2 (UniProt O95969) | inactive: 0.252 |
| SBF2 (UniProt Q86WG5) | inactive: -0.07 |
| SCYL3 isoform 2 (UniProt Q8IZE3) | inactive: -0.041 |
| S100A4 (UniProt P26447) | inactive: 0.034 |
| SCAMP2 (UniProt O15127) | inactive: -0.073 |
| SDHD (UniProt O14521) | inactive: 0.092 |
| SCOC (UniProt Q9UIL1) | inactive: 0.368 |
| RRP36 (UniProt Q96EU6) | inactive: 0.043 |
| RUBCN (UniProt Q92622) | inactive: -0.457 |
| SDHB, A0A087WXX8 | inactive: -0.053 |
| RTN4 isoform 5 (UniProt Q9NQC3) | inactive: 0.091 |
| RTL10 (UniProt Q7L3V2) | inactive: 0.094 |
| RXRG (UniProt P48443) | inactive: -0.086 |
| SCRIB isoform 3 (UniProt Q14160) | inactive: 0.064 |
| SCAI isoform 2 (UniProt Q8N9R8) | inactive: -0.132 |
| SEC22A (UniProt Q96IW7) | inactive: -0.003 |
| S100A14 (UniProt Q9HCY8) | inactive: 0.16 |
| RSL24D1 (UniProt Q9UHA3) | inactive: -0.084 |
| SCAMP3 isoform 2 (UniProt O14828) | inactive: -0.175 |
| RTL8C (UniProt A6ZKI3) | inactive: -0.055 |

A stretch of the results above, as a working copy:

| Target | log2 fold change |
| --- | --- |
| SCAMP3 isoform 2 (UniProt O14828) | inactive: -0.175 |
| RTL8C (UniProt A6ZKI3) | inactive: -0.055 |
